From article PMC4024641
These are yes or no findings as the source states them, for the method shown. In cells and extracts the contact can be indirect. Here binding means that the protein was enriched with, or labelled near, the bait; the list need not be complete. Tags and fused reporters may be left off the sequences shown.

T1: Mtl1-3×FLAG (S. pombe) (UniProt O13799)
T1 sequence: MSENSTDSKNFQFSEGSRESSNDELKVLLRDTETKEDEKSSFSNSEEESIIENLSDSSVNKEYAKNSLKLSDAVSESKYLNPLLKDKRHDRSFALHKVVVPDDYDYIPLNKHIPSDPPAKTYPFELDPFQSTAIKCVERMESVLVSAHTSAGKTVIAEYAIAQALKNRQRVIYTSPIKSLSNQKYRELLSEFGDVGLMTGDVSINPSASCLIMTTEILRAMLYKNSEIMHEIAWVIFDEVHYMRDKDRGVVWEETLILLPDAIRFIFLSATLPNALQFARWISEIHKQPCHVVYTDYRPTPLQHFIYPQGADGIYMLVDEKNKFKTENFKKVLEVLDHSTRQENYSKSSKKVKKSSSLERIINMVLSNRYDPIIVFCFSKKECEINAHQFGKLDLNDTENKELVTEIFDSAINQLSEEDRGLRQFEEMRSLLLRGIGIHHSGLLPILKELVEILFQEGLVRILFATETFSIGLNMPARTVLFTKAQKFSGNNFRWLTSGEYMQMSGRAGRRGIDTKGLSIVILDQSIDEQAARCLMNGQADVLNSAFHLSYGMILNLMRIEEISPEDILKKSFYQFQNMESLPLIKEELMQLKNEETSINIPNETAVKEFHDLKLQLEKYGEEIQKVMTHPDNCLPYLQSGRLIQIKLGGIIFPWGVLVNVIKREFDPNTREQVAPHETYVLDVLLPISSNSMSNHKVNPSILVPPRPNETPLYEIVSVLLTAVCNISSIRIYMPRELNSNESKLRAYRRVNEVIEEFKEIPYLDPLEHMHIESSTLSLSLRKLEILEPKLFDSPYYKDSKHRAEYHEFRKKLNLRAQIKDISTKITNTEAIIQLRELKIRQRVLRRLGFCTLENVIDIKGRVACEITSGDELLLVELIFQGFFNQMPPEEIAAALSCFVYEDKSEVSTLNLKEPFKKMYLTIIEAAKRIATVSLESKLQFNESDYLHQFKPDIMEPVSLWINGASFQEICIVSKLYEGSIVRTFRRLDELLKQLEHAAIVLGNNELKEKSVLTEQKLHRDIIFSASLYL

T2: Red1-3×FLAG (S. pombe) (UniProt Q9UTR8)
T2 sequence: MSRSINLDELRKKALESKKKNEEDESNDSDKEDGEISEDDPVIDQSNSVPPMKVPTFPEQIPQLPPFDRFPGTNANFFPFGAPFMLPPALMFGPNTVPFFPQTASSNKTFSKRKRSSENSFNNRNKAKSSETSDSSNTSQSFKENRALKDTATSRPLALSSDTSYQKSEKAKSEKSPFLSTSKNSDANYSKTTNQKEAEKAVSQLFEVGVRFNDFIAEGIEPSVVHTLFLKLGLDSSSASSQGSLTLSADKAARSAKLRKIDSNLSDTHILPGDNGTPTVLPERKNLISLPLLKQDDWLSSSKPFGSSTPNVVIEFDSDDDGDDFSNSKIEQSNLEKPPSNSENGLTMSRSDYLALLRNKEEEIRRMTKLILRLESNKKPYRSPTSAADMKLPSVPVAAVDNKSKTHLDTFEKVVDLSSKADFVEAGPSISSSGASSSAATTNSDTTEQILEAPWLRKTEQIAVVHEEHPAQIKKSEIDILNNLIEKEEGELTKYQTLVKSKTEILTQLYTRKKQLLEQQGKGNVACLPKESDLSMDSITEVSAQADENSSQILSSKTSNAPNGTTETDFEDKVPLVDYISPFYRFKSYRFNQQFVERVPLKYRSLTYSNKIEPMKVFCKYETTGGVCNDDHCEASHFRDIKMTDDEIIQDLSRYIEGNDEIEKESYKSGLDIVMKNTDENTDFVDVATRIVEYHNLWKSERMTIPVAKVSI

T3: Ars2-3×FLAG (S. pombe) (UniProt O94326)
T3 sequence: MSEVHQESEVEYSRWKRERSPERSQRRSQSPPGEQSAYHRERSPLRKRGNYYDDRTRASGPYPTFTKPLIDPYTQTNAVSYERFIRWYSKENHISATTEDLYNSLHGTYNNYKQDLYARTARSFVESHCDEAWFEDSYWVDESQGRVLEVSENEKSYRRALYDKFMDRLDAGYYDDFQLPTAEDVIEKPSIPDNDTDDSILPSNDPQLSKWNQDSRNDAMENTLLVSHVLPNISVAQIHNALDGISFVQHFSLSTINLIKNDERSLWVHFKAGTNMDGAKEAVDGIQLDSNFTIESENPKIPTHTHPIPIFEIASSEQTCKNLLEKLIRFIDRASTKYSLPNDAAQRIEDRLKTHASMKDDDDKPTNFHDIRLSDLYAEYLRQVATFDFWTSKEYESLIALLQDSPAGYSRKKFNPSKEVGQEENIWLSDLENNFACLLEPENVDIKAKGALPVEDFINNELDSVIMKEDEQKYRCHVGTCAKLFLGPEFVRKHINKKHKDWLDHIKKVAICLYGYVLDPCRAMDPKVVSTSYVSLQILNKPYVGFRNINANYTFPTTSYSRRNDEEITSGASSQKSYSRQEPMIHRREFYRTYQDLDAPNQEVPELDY


What was measured:
Experiment in all cases: affinity purification with mass spectrometry; 3×FLAG- or 13×myc-tagged bait purified from S. pombe cell extract on α-FLAG (M2) or α-myc (9E10) antibody cross-linked to Protein G Dynabeads, 4°C for 3 h, IP buffer (20 mM HEPES pH 7.5, 100 mM NaCl, 5 mM MgCl2, 1 mM EDTA, 10% glycerol, 0.25% Triton X-100, 0.5 mM DTT); LC-MS/MS; Red1-3×FLAG also from iss10Δ, rmn1Δ and Mtl1 knockdown cells
Mtl1-3×FLAG (S. pombe) = biological target: T1, Mtl1-3×FLAG (S. pombe)
Red1-3×FLAG (S. pombe) = biological target: T2, Red1-3×FLAG (S. pombe)
Ars2-3×FLAG (S. pombe) = biological target: T3, Ars2-3×FLAG (S. pombe)

Row | Binder | binding (Mtl1-3×FLAG (S. pombe)) | binding (Red1-3×FLAG (S. pombe)) | binding (Ars2-3×FLAG (S. pombe))
1 | Ars2-3×FLAG (protein, UniProt O94326 1-609) MSEVHQESEVEYSRWKRERSPERSQRRSQSPPGEQSAYHRERSPLRKRGNYYDDRTRASGPYPTFTKPLIDPYTQTNAVSYERFIRWYSKENHISATTEDLYNSLHGTYNNYKQDLYARTARSFVESHCDEAWFEDSYWVDESQGRVLEVSENEKSYRRALYDKFMDRLDAGYYDDFQLPTAEDVIEKPSIPDNDTDDSILPSNDPQLSKWNQDSRNDAMENTLLVSHVLPNISVAQIHNALDGISFVQHFSLSTINLIKNDERSLWVHFKAGTNMDGAKEAVDGIQLDSNFTIESENPKIPTHTHPIPIFEIASSEQTCKNLLEKLIRFIDRASTKYSLPNDAAQRIEDRLKTHASMKDDDDKPTNFHDIRLSDLYAEYLRQVATFDFWTSKEYESLIALLQDSPAGYSRKKFNPSKEVGQEENIWLSDLENNFACLLEPENVDIKAKGALPVEDFINNELDSVIMKEDEQKYRCHVGTCAKLFLGPEFVRKHINKKHKDWLDHIKKVAICLYGYVLDPCRAMDPKVVSTSYVSLQILNKPYVGFRNINANYTFPTTSYSRRNDEEITSGASSQKSYSRQEPMIHRREFYRTYQDLDAPNQEVPELDY | binds | binds | 
2 | Cbc1 (protein, UniProt O14253 1-780) MSSYRGSTRPRKRTREGENYGFRPHRGNSQELLAARIKKDITFLADPRGNSVAADDINYVAMSLSREANDPETISTILDCIQTTAFIIPVKIPHLATLIIRASLRVPLILEKAAAYFCLQYFTNLNSFLYYEAKVDLRMLICMSFALQPGTLKPLFSLLADAISKETKPSVWGDNFLRIILINLPYFIAANNDLGKKDFANEILDQCEIYVRHRKSSITLSNPLSIHDNLSEEELDLLYKQLILSRENDFTFPYISQPWKFFESDFVHIVPVSPSIPEWTFQPTPQQNELPSFKRFFELFNNFEIRTTPDASDVAASIFRDISVDVINHLEFNRVEAAQVLTDLDVYFTYKTFALRGTPVNELPNLDPSESRWKAEDIIVEAVLGELLGSQNTTYKPVYYHSLLIECCRIAPKILAPTFGRVIRLMYTMSSDLPLQTLDRFIDWFSHHLSNFNFHWKWNEWIPDVELDDLHPKKVFMRETITRELILSYYTRISDSLPEELRCLLGEQPSGPNFVYENETHPLYQQSSQIIEALRLHKPLEELDIILQSEEIQNSETSAVRLVMSCAYSLGSRSFSHALNVFEKHLNTLKHFSRKSLDSEIEVVDELFSFWKLQPFNAVMWLDKMLNYSIISITSIIEWLIKQDVTIWSRSYTWSLVNTTFNKLAARLRRSVSNKEDSSLINEANEEKEIVTNLLLSALRALISENAENIWVSHWLNLMLKYVESNFLSVKKDTIEEANEPVQENTSEEQEDTKMQPVDAVDEQPSENNQTAADATNEEK | binds | binds | binds
3 | Cbc2 (protein, UniProt Q9P383 1-182) MASITRLDAVSPYLIRRFKNDLRALDAVKQSNCVYVGNLSFYTTEEQIYALFSKCGEIRRIIMGVDRFTKTPCGFCFVEYFENQDALDSLKYISRTSLDERIIRADLDHGYEEGRQYGRGASGGQVRDEMREEFDPGRGGYAKNRQPTSSRQLANYSGISSAPLGSSLELQSNPRYNRWKKN | binds | binds | binds
